IC50 cell viability data for one compound are collected here from the supplement of paper PMC12137928.

SMILES strings stand for the structures.

In the assay the test system is HCT116. The settings on record: 72 h. The method, boiled down: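 Each well of the 1536-well plates received 250 HCT116 cells, which attached over 5 h. Luminescence was measured with CellTiter-Glo, scaled with vehicle as 0% and positive control as -100%, and pattern-corrected. A four-parameter Hill fit yielded IC50 and maximal efficacy.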

`CC(C)(C)c1ccc(O)cc1` [4-tert-Butylphenol]: the IC50 cell viability (ICRF193 0 nM) was greater than 45.8 µM and the IC50 cell viability (ICRF193 200 nM) is greater than 45.8 µM.
